Our source for the AC50 values is PubChem BioAssay AID493014 (National Center for Advancing Translational Sciences (NCATS), 2011).

Structures are written as SMILES. Some of the results follow. Shown are side measurements of this screen, not its main read-out; they come without a call. Most of these compounds were active or inconclusive in the main read-out, so they are no random draw. Words in brackets tell the shape of the fitted curve; partial curves, single points and poor fits give uncertain potencies.

For orientation: AC50 means the midpoint of the concentration-response curve, whichever way the signal moves.

The nature of the assay: qHTS Assay to Find Inhibitors of Chronic Active B-Cell Receptor Signaling. The conditions noted are these: ABC-DLBCL IkBa-CBG/CBR reporter, luminescence ratio (green luciferase fused to IkBa over red control in TMD8 lymphoma cells), 4 h. In a few lines:
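Doxycycline induced both beetle luciferases in TMD8 lymphoma cells; IKK-driven degradation limits the IkappaBalpha-fused green signal, while red luminescence normalises for cell number and nonspecific effects. Compounds tested up to 46 uM, 4 hrs.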
Background: In qHTS, concentration-response curves come from the screen itself.

Where [1] appears, read: measured here: CBR red luminescence, cell number.
Where [2] appears, read: measured here: IkBa-CBG green luminescence.

As to `COc1ccc(S(=O)(=O)N2CCN(C(=O)COc3ccc4c(C)cc(=O)oc4c3)CC2)cc1`, the AC50 under setting [1] was 3.55 µM [falling, single point].

For the molecule `Cc1cc(C(=O)N2CCOCC2)ccc1[N+](=O)[O-]`, the half-maximal activity concentration (AC50) under setting [1] was 1.78 µM [falling, full curve].

On to `Cc1ccc(Nc2nc3ccc(Cl)cc3n3cnnc23)cc1F`, for which, under setting [1], the concentration at half-maximal activity (AC50) is 1.58 µM [rising, full curve, poor fit].

In the case of `CCOc1ccc(CCNC(=O)c2[nH]c(C)c(C(C)=O)c2CC)cc1OCC`, the AC50 under setting [1] was 20 µM [rising, partial curve, poor fit].

Regarding `CCOC(=O)[C@H]1[C@H]2COc3ccc(Br)cc3[C@@H]2N2C(=O)c3cc(F)c(F)cc3NC(=O)[C@@]12C`, under setting [1], the AC50 was 23.1 µM [falling, single point].

Regarding `C=CCOc1cccc(CNc2cccc(C(=O)O)c2)c1`, the AC50 under setting [1] is 35.5 µM [falling, single point].

On to `CCN(C(=O)CCN1C(=O)S/C(=C\c2ccccc2)C1=O)C1CCS(=O)(=O)C1` (stereo unspecified), for which the AC50 under setting [1] was 22.4 µM [falling, single point].

As to `O=S(=O)(Nc1cccc2cccnc12)c1ccc(S(=O)(=O)N2CCCC2)cc1`, the half-maximal activity concentration (AC50) under setting [1] was 3.66 µM [rising, full curve] and the AC50 under setting [2] is 9.2 µM [falling, partial curve].

Consider `COC(=O)c1ccc(CO/N=C/c2ccc(OC)cc2OC)cc1`, for which the AC50 under setting [1] is 12.6 µM [falling, partial curve].

On to `CCOC(=O)c1c(NC(=O)COC)sc(C(C)=O)c1C`, for which the concentration at half-maximal activity (AC50) under setting [1] was 1.64 µM [falling, partial curve, poor fit].

For `CN(C)c1ccnc(Nc2ccccc2)c1C#N`, the AC50 runs as follows: under setting [1], 11.2 µM [falling, partial curve]; under setting [2], 14.1 µM [rising, single point].

In the case of `Cc1nn(C)cc1-c1csc(N)n1`, the AC50 under setting [1] is 2.51 µM [rising, full curve, poor fit].

Turning to `CN1c2ccccc2C(O)=C(C(=S)Nc2ccc(Cl)cc2)S1(=O)=O`, under setting [1], the half-maximal activity concentration (AC50) is 29.1 µM [falling, single point].

Regarding `CCCCC[C@@H]1C=C(C(=O)O)[C@H](c2ccc(Cl)c(Cl)c2)N1S(=O)(=O)c1ccc(C)cc1`, under setting [1], the AC50 is 29.1 µM [falling, single point].

Regarding `COc1cccc(C(=O)Nc2ccc(-n3nncc3-c3ccccc3)cc2)c1`, the AC50 under setting [1] was 12.6 µM [falling, partial curve, poor fit].

Take `COc1ccc(/C=C2\Oc3cc(OCC(=O)N4CCC(C(=O)O)CC4)ccc3C2=O)c(OC)c1`: the half-maximal activity concentration (AC50) under setting [1] is 11.2 µM [falling, single point].

Take `Cc1ccc(SCC(=O)Nc2cccc(NC(=O)c3ccco3)c2)cc1`: under setting [1], the AC50 was 1.12 µM [falling, full curve, poor fit].

On to `CC(C)(C)C(=O)NC(=S)Nc1sc2c(c1C#N)CCCCC2`, for which, under setting [1], the AC50 is 29.1 µM [rising, single point].

In the case of `O=C1/C(=C/c2cccc3ccccc23)CCCc2ccccc21`, under setting [1], the concentration at half-maximal activity (AC50) is 3.26 µM [rising, full curve, poor fit].

As for `CCCOC(=O)c1c(NC(=O)CSc2nc(-c3ccco3)cc(C(F)(F)F)n2)sc(C(=O)OC)c1C`, the concentration at half-maximal activity (AC50) under setting [1] was 5.17 µM [falling, partial curve, poor fit].

For the molecule `Cc1nc2sc(-c3ccccc3)cc2c(=O)n1-n1cccc1`, the concentration at half-maximal activity (AC50) under setting [1] was 1.12 µM [rising, full curve].

For the molecule `COc1ccc(/C=N/Nc2nc3ccccc3s2)cc1O`, under setting [1], the concentration at half-maximal activity (AC50) was 12.6 µM [falling, partial curve, poor fit].

Take `O=C1c2ccccc2C(=O)N1CCC(c1ccccc1)c1ccco1` (stereo unspecified): the AC50 under setting [1] was 13 µM [falling, partial curve, poor fit].

As for `Cc1ccccc1-c1cn(-c2ccccc2)c(=S)[nH]1`, the AC50 under setting [1] was 6.31 µM [falling, full curve].

Take `O=C(Nc1ccc(OC(F)(F)F)cc1)c1cccc(-n2cnnn2)c1`: the AC50 under setting [1] was 10.3 µM [rising, partial curve].

Take `Cc1ccc(NC(=O)[C@H](NC(=O)[C@@H]2Cc3ccccc3CN2)c2ccccc2)cc1`: the AC50 under setting [1] is 35.5 µM [falling, single point].

Consider `O=C(NC1CCCC1)C1CC(=O)N(c2ccc(F)cc2)C1` (stereo unspecified), for which the AC50 under setting [1] was 4.47 µM [falling, full curve, poor fit].

For `Cc1ccc(N2CCCC2=O)cc1S(=O)(=O)N1CCOCC1`, the half-maximal activity concentration (AC50) under setting [1] is 35.5 µM [rising, single point].

As for `Cn1c(=S)c2[nH]c(SCCN3CCCC3)nc2n(C)c1=O`, the AC50 under setting [2] is 10 µM [falling, partial curve].

As to `O=C(Nc1ccccc1N1CCCCC1)c1ncoc1-c1ccc(F)cc1`, the half-maximal activity concentration (AC50) under setting [1] is 5.17 µM [rising, full curve].

Regarding `O=C(Nc1ccc(Cl)cc1)/C(=C/c1cccc(O)c1)c1nc2ccccc2s1`, the half-maximal activity concentration (AC50) under setting [1] is 29.1 µM [falling, single point].

`CCc1c(O)nc(SCC(=O)Nc2nc3ccccc3s2)n(-c2ccc(C)cc2)c1=O`: the AC50 under setting [1] was 0.447 µM [falling, full curve, poor fit].

In the case of `COC(=O)c1cn(C(C)C(=O)NCc2ccco2)c2ccccc12` (stereo unspecified), the half-maximal activity concentration (AC50) under setting [1] is 14.6 µM [falling, partial curve, poor fit].

For `CCOC(=O)c1cc(-c2ccc(OC)cc2)nc2c1c(C)nn2CCC#N`, the concentration at half-maximal activity (AC50) under setting [1] is 20.6 µM [rising, single point].

In the case of `C/C(=N\NC(=O)c1nn(C)cc1Br)c1cccc(NC(=O)C(C)(C)C)c1`, the half-maximal activity concentration (AC50) under setting [1] is 25.1 µM [falling, partial curve, poor fit].

In the case of `CC(=O)N(C)C1(c2nnnn2CCOC(=O)Nc2ccc(Cl)cc2)CCCCC1`, under setting [1], the half-maximal activity concentration (AC50) was 13 µM [rising, partial curve, poor fit].

As to `CC(Sc1ccccc1)C(=O)N1CCN(S(=O)(=O)c2cccc(Br)c2)CC1` (stereo unspecified), under setting [1], the concentration at half-maximal activity (AC50) is 35.5 µM [falling, single point].

Take `Cc1ccc(NC(=O)NNC(=O)c2cccs2)cc1`: the AC50 under setting [1] was 16.4 µM [falling, partial curve].

`O=C(Nc1cccc(NC(=O)c2nccc3ccccc23)c1)c1ccco1`: the half-maximal activity concentration (AC50) under setting [1] is 7.08 µM [falling, partial curve, poor fit].

`Cn1c(=O)oc2cc(S(=O)(=O)NCCC(=O)NCCc3ccc(Cl)cc3)ccc21`: the half-maximal activity concentration (AC50) under setting [1] was 6.51 µM [falling, full curve].

For the molecule `NS(=O)(=O)c1ccc(CCNc2ncnc3c2c(-c2ccccc2)cn3-c2ccc(F)cc2)cc1`, the concentration at half-maximal activity (AC50) under setting [1] was 29.1 µM [falling, single point].

As for `CSc1nnc(-c2cccc(C)c2)n1N`, the concentration at half-maximal activity (AC50) under setting [1] was 4.61 µM [rising, single point].

`O=C(O)c1ccc2nc(-c3ccccc3)c(-c3ccccc3)nc2c1`: under setting [1], the AC50 is 8.2 µM [falling, partial curve].

With `O=C(CSc1ccc2ccccc2n1)Nc1ccc(N2CCOCC2)cc1`, the half-maximal activity concentration (AC50) under setting [1] is 2.24 µM [rising, full curve, poor fit].

`O=[N+]([O-])c1cc(Cl)ccc1Nc1ccccc1`: the half-maximal activity concentration (AC50) under setting [1] was 31.6 µM [rising, single point].

On to `O=C(NCCOc1ccccc1)C1=CC=CN2CCS(=O)(=O)N=C12`, for which the AC50 under setting [1] was 16.4 µM [rising, single point].

In the case of `O=C(c1ccco1)N1CCN(C2CC(=O)N(c3ccc4c(c3)OCO4)C2=O)CC1` (stereo unspecified), the AC50 under setting [1] is 29.1 µM [rising, single point].

Consider `CCOc1ccc(-n2c(N)c(-c3nc4ccccc4[nH]3)sc2=S)cc1`, for which the half-maximal activity concentration (AC50) under setting [1] is 10.3 µM [falling, partial curve].

Consider `CCOC(=O)c1[nH]c2ccc(OC)cc2c1NC(=O)c1nonc1C`, for which the AC50 under setting [1] is 0.562 µM [rising, full curve, poor fit].

For `CCOC(=O)c1sc(NC(=O)CCc2ccc(OC)cc2)nc1C`, under setting [1], the AC50 was 0.501 µM [falling, full curve, poor fit].

In the case of `O=C(CSCc1ccc(Cl)cc1)Nc1ccc(Br)cc1C(=O)O`, the AC50 under setting [1] was 4.47 µM [falling, full curve, poor fit].

For the molecule `O=S(=O)(c1ccc(F)cc1)c1nc(-c2ccco2)oc1Nc1ccccc1`, the AC50 under setting [1] is 16.4 µM [falling, partial curve].

Turning to `Cn1c(NC(=O)/C=C/c2ccc(Cl)c(Cl)c2)cc(=O)n(C)c1=O`, the AC50 under setting [1] was 29.1 µM [rising, partial curve, poor fit].

For `CC(=O)Oc1ccc(-c2csc(Nc3ccc(Cl)cn3)n2)cc1`, under setting [1], the AC50 is 6.31 µM [falling, full curve].

As to `CCOc1ccc(NC(=O)Cn2nc(C(N)=O)c3ccccc3c2=O)cc1S(=O)(=O)N1CCCC1`, under setting [1], the AC50 is 3.66 µM [falling, full curve].

`CCCN1CCN(C(=O)c2nn(-c3ccc(OC)cc3)c(=O)c3c2c2ccccc2n3C)CC1`: the AC50 under setting [1] is 0.708 µM [falling, partial curve, poor fit].

As for `O=C1Nc2ccccc2Nc2ncccc21`, the half-maximal activity concentration (AC50) under setting [1] is 17.8 µM [falling, single point].

Turning to `COc1ccc(CN2CC(=O)N(c3ccc(Cl)cc3)C2=S)cc1OC`, the concentration at half-maximal activity (AC50) under setting [1] is 20 µM [rising, partial curve, poor fit].

For `O=C(/C=C/c1ccc(OCc2c(F)cccc2Cl)cc1)N1CCOCC1`, the half-maximal activity concentration (AC50) under setting [1] was 22.4 µM [falling, partial curve].

In the case of `CCOc1cccc(C(=O)Nc2ccc3[nH]ncc3c2)c1`, under setting [1], the AC50 was 3.16 µM [falling, full curve].

`CCC1CCCCN1CCCNC(=O)c1ccc(/C=C2/Sc3ccccc3NC2=O)cc1` (stereo unspecified): the AC50 under setting [1] is 4.47 µM [falling, partial curve, poor fit].

Take `N#Cc1ccccc1OCC(=O)N(C1CCCCC1)C1CCS(=O)(=O)C1` (stereo unspecified): the concentration at half-maximal activity (AC50) under setting [1] is 7.31 µM [falling, partial curve].

As for `NC(=O)C1CCN(c2oc(-c3ccccc3F)nc2S(=O)(=O)c2ccc(Cl)cc2)CC1`, under setting [1], the AC50 was 29.1 µM [rising, single point].

For `CN1C(=O)/C(=C/c2ccc(OCc3ccccc3F)cc2)NC1=S`, under setting [1], the AC50 was 4.47 µM [rising, partial curve].
